Measured data: PubChem BioAssay AID1259308 (NCATS, 2017)
Test: 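Knock-downs that increase output of a recombinant reporter protein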 (primary screen). System: human HEK293 embryonic kidney cells stably expressing firefly luciferase (HEK-CMV-Luc2-Hygro). Knock-down reagent: single siRNA against human genes, 0.8 pmol siRNA per well. Duration: 72 h. Measured: 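Luciferase light (ONE-Glo) measured on one replicate plate set and viability (CellTiter-Glo) on the other, scaled to a negative control siRNA, with robust z-scores and luciferase per cell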. Reading the numbers: total luciferase, z-score and total luciferase, % of control: higher = more reporter protein produced; luciferase per cell, z-score: higher = more reporter output per viable cell; viable cells, % of control: higher = more viable cells. Hit rule: 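Active when the median/MAD z-score for overall luciferase is greater than 3; a gene was taken forward for validation with new siRNAs if at least two of its three siRNAs passed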. Calls: active = raised luciferase; inactive = no rise.
This is an unselected part of about 59,000 reagents. Of all reagents, about 1,510 (2.6%) were called active. 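Calls use total luciferase alone and ignore viability, so some active siRNAs may act by altering cell number.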 The numbers tell different reagents against one gene apart.

Gene | reagent | total luciferase, z-score | total luciferase, % of control | luciferase per cell, z-score | viable cells, % of control | Call
BRD8 | 1 | -0.214 | 77.6 | -0.132 | 89.8 | inactive
BRD8 | 2 | -1.12 | 59.7 | -0.762 | 81.5 | inactive
BRD8 | 3 | 0.631 | 94.4 | 0.122 | 102 | inactive
WDR35 | 1 | -0.191 | 78.1 | 0.595 | 74.6 | inactive
WDR35 | 2 | 2.49 | 131 | 2.78 | 70.6 | inactive
WDR35 | 3 | -1.37 | 54.7 | -1.59 | 92.9 | inactive
SEPSECS | 1 | 0.535 | 92.5 | 0.523 | 90.1 | inactive
SEPSECS | 2 | -0.578 | 70.4 | 0.254 | 73.6 | inactive
SEPSECS | 3 | -0.0818 | 80.3 | -0.866 | 113 | inactive
AACS | 1 | 1.01 | 102 | 0.768 | 93.1 | inactive
AACS | 2 | -0.0186 | 81.5 | -0.182 | 95.5 | inactive
AACS | 3 | -1.99 | 42.4 | -1.43 | 69 | inactive

A stretch taken from the entries so far:
Gene | reagent | total luciferase, z-score | total luciferase, % of control | luciferase per cell, z-score | viable cells, % of control | Call
WDR35 | 1 | -0.191 | 78.1 | 0.595 | 74.6 | inactive
WDR35 | 2 | 2.49 | 131 | 2.78 | 70.6 | inactive

Next reagents follow.
Gene | reagent | total luciferase, z-score | total luciferase, % of control | luciferase per cell, z-score | viable cells, % of control | Call
SPINK5 | 1 | -0.166 | 78.6 | -0.257 | 94 | inactive
SPINK5 | 2 | -1.11 | 59.7 | -1.09 | 88.9 | inactive
SPINK5 | 3 | -0.511 | 71.7 | -0.606 | 94 | inactive
C4orf36 | 1 | -0.329 | 75.3 | 0.174 | 80.4 | inactive
C4orf36 | 2 | 0.746 | 96.7 | 1.56 | 71.7 | inactive
C4orf36 | 3 | -0.515 | 71.6 | -0.591 | 93.5 | inactive
IMPDH2 | 1 | 0.119 | 84.2 | 0.0486 | 92.9 | inactive
IMPDH2 | 2 | 2.29 | 127 | 1.7 | 90.9 | inactive
IMPDH2 | 3 | 0.164 | 85.1 | 0.362 | 86.5 | inactive
PIK3CA | 1 | -0.351 | 74.9 | 1.46 | 57 | inactive
PIK3CA | 2 | 1.6 | 114 | 0.728 | 105 | inactive
PIK3CA | 3 | 0.455 | 90.9 | 0.744 | 83.5 | inactive
